Results reported in PubChem BioAssay AID1347423 (Functional Genomics Laboratory (NCATS/FGL), 2020).
The whole screen tested about 52,000 sequences, of which about 210 (0.4%) were called active.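 Rule for the calls: active = gene whose silencing raises cell survival under the drug, median off-target-corrected z-score across its silencing RNAs 2 or more; inactive = the rest.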 Some of the results follow.

Experiment: Resistance to Poly (ADP-Ribose) Polymerase inhibitor: Gene Identification via Genome-wide siRNA Screen
Conditions: mouse BRCA2 R2336H ES cells, olaparib, CellTiter-Glo viability; active compounds read high
How it was run: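 Mouse BRCA2 R2336H ES cells were reverse-transfected with siRNA (20 nM final), treated at 48 h with 500 nM olaparib, and read by CellTiter-Glo after 72 h. Scores: MAD-based z per siRNA, median per gene, seed off-target correction.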

Row | Sequence | z-score
1 | CCAGGUGAAUUAAUAGUCUTT against Stk4 | inactive: -0.315
2 | GGGCAAAUAGUCAAUGACCTT against Es22 | inactive: 0.17
3 | GGACGAACAGUAUUAUACUTT against Lhx5 | inactive: 0.685
4 | GCAACCUUAUGCUCUAUUUTT against Ythdf3 | inactive: 0.839
5 | GGAGGUGAGAAAUACAGAGTT against Dbpht2 | inactive: 0.056
6 | GCACUUUUCGGAACUAUAUTT against Rbp1 | inactive: 0.407
7 | GGGAUUCAGUAUAAAACACTT against Nup37 | inactive: -0.175
8 | CCUAUGUGUGUGAUCUUGATT against Nnmt | inactive: -0.428
9 | GGAGUAUAACUAUGGCUUCTT against 1110012M11Rik | inactive: -0.166
10 | GGCUAUAAUGAACCAGCUGTT against A130030D10Rik | inactive: -2.19
11 | GGAACUGUAUUCAUUGAUGTT against Rnpepl1 | inactive: 0.923
12 | GGUUGGGAGAAGAAACUUCTT against 2810453K03Rik | inactive: -1.63
13 | GCUAUAUGCUGAGUAUGACTT against Olfr777 | inactive: 0.305
14 | GGAAACAAGGAAACAACAGTT against 1700042N06Rik | inactive: -0.0523
15 | CCAUGACCUAGACUCUACATT against 2310075M15Rik | inactive: 0.107
16 | GGAAAAAGAUGCGACAAUGTT against A930012O16Rik | inactive: 0.723
17 | CCAUCUAGUGCUGUAUUUCTT against 0610009J22Rik | inactive: 0.358
18 | CGCAUUUCAAGGGAAAAUUTT against Tubgcp3 | inactive: -1.81
19 | CCAUGAAGAACAAGAAAACTT against 1700010D01Rik | inactive: 0.934
20 | CCAAUGGUGAUCAAAGCGGTT against 8430429K09Rik | inactive: -0.987
21 | CCUGUACCCGAACAUACCATT against 1700008G05Rik | inactive: -2.19
22 | CCACGUGUUUGCAUUCAAATT against Gdd1 | inactive: 0.222
23 | GGUUGGCUAGUCUGUCUGATT against Atp5h | inactive: -0.812
24 | CCGCCUAGCUGAUCUUGUGTT against Aldh1b1 | inactive: -1.71
25 | GCAGUCCAGUAAUUAAUUCTT against Havcr2 | inactive: 0.826
26 | CCUAAGCAGCAUUUCAAUATT against Gyg1 | inactive: 0.434

Row | Sequence | z-score
27 | GGAGCGAUUUCAUUUGGAUTT against D8Ertd594e | inactive: 0.472
28 | GGCGACAGACUUAUUAUUGTT against Prdx5 | inactive: 1.04
29 | CCCUAACUGAGGAAGGAGGTT against C130073D16Rik | inactive: 0.201
30 | GGAAGACCUGAAGAAGGUGTT against Gck | inactive: -0.194
31 | UCAACUCAAACUAUGUCGATT against Hoxb4 | inactive: 0.0592
32 | GGAAACUAGAUCAUGAGAUTT against Rtkn | inactive: 0.59
33 | CCUUAAGGAACUAGGAUUCTT against Gpr49 | inactive: 0.383
34 | GCUACAAAUAUUCUUUGGCTT against Mmp20 | inactive: 0.081
35 | GGUCUUUGUGCCAAUAGAGTT against Orc3l | inactive: 0.472
36 | GCAGCAUAGAGACUAAAUCTT against Dub1 | inactive: 1.3
37 | CCUUAAAGAACUAUCAUUGTT against Senp2 | inactive: 0.321
38 | GGUGGAGUUAGAAAACUACTT against LOC210321 | inactive: 0.381
39 | GGAAUGAUUUUCUUAAGGATT against Ddr2 | inactive: -0.878
40 | GAUUACGUUGGCCUGUCUCTT against Tff3 | inactive: -0.849
41 | GAUCCAAGACAAGGAAGGCTT against Uba52 | inactive: -3.12
42 | GCUGGUUACAUGAAAUUAATT against Nup133 | inactive: -0.276
43 | GGACCUUGAGAUAUCUUUUTT against D130020L05Rik | inactive: -1.1
44 | GCUAUCCAGAUUGGUGUUATT against Tatdn1 | inactive: -0.384
45 | CAUUCCAACACUUCAAACUTT against 2410025L10Rik | inactive: 1.02
46 | GGGUCGUUGUCCCUUUGACTT against Sema4b | inactive: 0.155
47 | CCAAUAACCCAGGAGUGCUTT against Cst7 | inactive: 0.528
48 | GGACUAUAUUCAGCAGCUUTT against Mrpl22 | inactive: -0.608
49 | CCUUCUUCUUACUGAUAAUTT against Olfr1276 | inactive: -0.946
50 | GGGCCUUCAAAAAACUGCCTT against 2610027C15Rik | inactive: -0.246
51 | GCCAAAAAUAUGGGAGAUATT against Col1a1 | inactive: 0.133
52 | GGCCCUUGUUUAAAGCCAUTT against Asns | inactive: -1.53

Row | Sequence | z-score
53 | GGAAUUAUCAGCGAUAAAGTT against 1110001A07Rik | inactive: 0.15
54 | GGAUAAGCAGUACUUUAAATT against 1810011K17Rik | inactive: 1.34
55 | CCAAGUUUUCAAAACAAACTT against Aqp3 | inactive: 1.37
56 | GCGGAGAUACUGGAGUUCGTT against Hes7 | inactive: 1.37
57 | GGGCAAACUCACAUCUAAATT against 9830109N13Rik | inactive: 0.447
58 | GGAAUCCCAGUGCUUGAAGTT against Efna1 | inactive: -0.104
59 | GGAAUGAUUGUCUUGAUUCTT against Olfr952 | inactive: -0.817
60 | GUAAUUCACAGUGGUCUGGTT against Mrps12 | inactive: -1.79
61 | GGAAAAAAUACCAGAAACATT against Klre1 | inactive: -0.387
62 | CCACAGGAUUUGUCUCCUCTT against Olfr328 | inactive: -1.53
63 | GCCUGGAUUAUAGGAUCACTT against Hspc171 | inactive: 0.314
64 | GGCCCUGCUUGUGUUUAAUTT against 2600016J21Rik | inactive: -1.05
65 | GGUCACUCCAUUGACUCAATT against Obrgrp | inactive: 0.699
66 | GGCCAACUGCCCUCACAUUTT against Rbbp9 | inactive: -0.352
67 | GCCCAAAUCUCAUUCAUAGTT against Kif5a | inactive: -0.861
68 | CGGUUUGGAAUGAAGAAUUTT against Rasa3 | inactive: 0.394
69 | GCGAAAUCAGUUGGUAAAUTT against Atf7 | inactive: 0.219
70 | CCGUAACAAGGAUCAGGAATT against S100a6 | inactive: 1.15
71 | GGAGGACUGGGAAGAUCAUTT against Aqp5 | inactive: 1.6
72 | GGACACUGUGAUGUGAGACTT against 2700087H15Rik | inactive: 0.684
73 | CGAGUGAAUGACUUUAACATT against Ubn1 | inactive: 0.561
74 | GCUAAGAUUCCUUCCAGUATT against Adm2 | inactive: -1.11
75 | AGGUAACAGUUCAACAGUATT against Olfr1039 | inactive: 0.0358
76 | GGAAGUUCAAGUGCUACUGTT against Zpbp2 | inactive: 0.0841
77 | CCUACCUCCUGAAUUUAUUTT against D1Bwg0212e | inactive: 2
78 | GGACUUUGAAGAGGACAAUTT against Dhx38 | inactive: -2.18

Seven successive records from above:
Row | Sequence | z-score
63 | GCCUGGAUUAUAGGAUCACTT against Hspc171 | inactive: 0.314
64 | GGCCCUGCUUGUGUUUAAUTT against 2600016J21Rik | inactive: -1.05
65 | GGUCACUCCAUUGACUCAATT against Obrgrp | inactive: 0.699
66 | GGCCAACUGCCCUCACAUUTT against Rbbp9 | inactive: -0.352
67 | GCCCAAAUCUCAUUCAUAGTT against Kif5a | inactive: -0.861
68 | CGGUUUGGAAUGAAGAAUUTT against Rasa3 | inactive: 0.394
69 | GCGAAAUCAGUUGGUAAAUTT against Atf7 | inactive: 0.219

Rewritten as tab-separated lines: entries from further up
Row	Sequence	z-score
69	GCGAAAUCAGUUGGUAAAUTT against Atf7	inactive: 0.219
70	CCGUAACAAGGAUCAGGAATT against S100a6	inactive: 1.15

The list continues.

Row | Sequence | z-score
79 | CCUUAUCUGGAGUGCGAGATT against 5330427M13Rik | inactive: -1.26
80 | GGAGCAUUUGUUACAAAUUTT against Ivns1abp | inactive: -1.72
81 | GGGAAAGACGAGUCAAAGGTT against Gbx2 | inactive: -0.299
82 | GCUUUCCCUUAGGCACUUUTT against 3200002M19Rik | inactive: -2.13
83 | GGUCAUGAAUUACUAUUCCTT against Pscd2 | inactive: -0.734
84 | GCUACAAUGUUUUUGGAGATT against Gc | inactive: -0.0645
85 | GAGUCCCAUUGAUAGAGGUTT against Olfr741 | inactive: 0.112
86 | GGAGGUGGAUCAAAUGGCATT against Gnrh2 | inactive: 0.673
87 | GGAGAAGCAAAACUUUUAATT against Snrpa1 | inactive: -1.26
88 | GCACAGUGACUACAUUCCUTT against Olfr479 | inactive: -1.24
89 | GGAGAAAGCAGAGAUAAAATT against Cdc2l1 | inactive: -1.5
90 | CCAUUGACUUACUUCUAAGTT against Ian6 | inactive: 1.68
91 | GGAAUUCCACCUAAAAUUGTT against Ttn | inactive: 0.334
92 | GCCGACUGGUUAAAUACAUTT against Nme3 | inactive: -0.45
93 | GGGUGGCAAGUGUACAGCUTT against Olfm3 | inactive: -0.36
94 | GCUUAUCAUCUCCAGACAGTT against 1110030H18Rik | inactive: 0.404
95 | GGCUAUGCUUUUGUCCAGUTT against Raly | inactive: 0.0172
96 | GGUCAUUUUCAGAAGGCUGTT against Lynx1 | inactive: -1.01
97 | GGUCACAGAAACACCAUGUTT against Klhdc4 | inactive: -0.887
98 | GGUUACAGUAAUUCAGUGUTT against 2610019F03Rik | inactive: -0.0409
99 | GGACCAAUGUUUUCUUCCUTT against Gngt2 | inactive: 1.04
100 | GAUGAUCAACAAUAGAUGCTT against Sprr1b | inactive: -0.21
101 | GGCUUUCACACUUGAAGAATT against D11Ertd497e | inactive: 0.244
102 | GGUUUUUAGCAGUUGUAGUTT against Adam3 | inactive: 0.42
103 | GGGAAGUUGUCUGACUAUUTT against Cyc1 | inactive: 0.639
104 | CCUGAGAACAUUUUAAUCATT against Tas2r116 | inactive: -0.685
